{"source": "PubChem BioAssay AID504467", "about": "(National Center for Advancing Translational Sciences (NCATS), 2011)", "note": "About 7,700 (2.3%) of roughly 330,000 compounds were called active. This list was built around the results that the source calls inconclusive (neither active nor inactive); the mix of calls is not that of the screen. Calls follow the shape of the dose curve; as a rule, active = well fitted inhibition curve with a large enough effect; inconclusive = small, poorly fitted or top-dose-only effect, or effect the other way; inactive = flat fitted curve, though single readings scatter. Where the call is inconclusive, the potency comes from a doubtful curve fit. % is scaled to controls: 0 for no effect and ±100 for the full control effect; potency is read from the fitted curve at half-maximal effect."}
{"assay": "qHTS screen for small molecules that inhibit ELG1-dependent DNA repair in human embryonic kidney (HEK293T) cells expressing luciferase-tagged ELG1; also: nearly all actives have a fitted effect of over 55% in size", "details": "HEK293T ELG1-luciferase reporter, luminescence, 16 h, DNA damage induced by 5-fluorouridine; activity change, negative = inhibition: at 46.1 µM (top of the series)", "method_in_brief": "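5-Fluorouridine DNA damage + compound/DMSO, 2,000 cells/well, 16 h, 37 °C/5% CO2. ONE-Glo, 30 min RT, luminescence. Readout = decrease in reporter signal.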"}
{"smiles": "CNC(=O)C(C#N)(Cc1cc(C(C)=O)ccc1OC)Cc1cc(C(C)=O)ccc1OC", "Potency": "inconclusive: 16.4 µM [inhibitor, single point]"}
{"smiles": "COCCN(C(=O)Cc1ccc(OC)c(OC)c1)c1nc(-c2cc(OC)ccc2OC)cs1", "Potency": "inconclusive: 29.1 µM [inhibitor, single point]"}
{"smiles": "N#Cc1c(-c2ccncc2)c2c([nH]c1=O)-c1ccccc1OC2", "activity change, negative = inhibition": "inactive: 5.4%"}
{"smiles": "CCN(CC(=O)NC(=O)NCc1ccccc1)CC(=O)Nc1cc(Cl)ccc1C", "Potency": "inconclusive: 23.1 µM [inhibitor, single point]"}
{"smiles": "CCCCc1ccc(NC(=O)NCc2ccccn2)cc1", "Potency": "inconclusive: 18.3 µM [activator, partial curve, poor fit]"}
{"smiles": "Cc1cc(NC(=O)c2ccc(N(C)S(=O)(=O)c3ccccc3)cc2)no1", "Potency": "inconclusive: 25.9 µM [inhibitor, partial curve, poor fit]"}
{"smiles": "CC(SC#N)C(=O)C12CC3CC(CC(C3)C1)C2", "note": "(configuration not stated)", "Potency": "inconclusive: 29.1 µM [activator, single point]"}
{"smiles": "O=C(c1ccco1)N(Cc1cc2ccccc2[nH]c1=O)CC1CCCO1", "note": "(configuration not stated)", "Potency": "inconclusive: 23.1 µM [activator, partial curve, poor fit]"}
{"smiles": "O=C(CN1C2=NCCCN2c2ccccc21)c1ccc([N+](=O)[O-])cc1", "Potency": "inconclusive: 16.4 µM [inhibitor, single point]"}
{"smiles": "O=C(NCCc1ccccc1)c1c(F)cccc1F", "Potency": "inconclusive: 9.2 µM [activator, partial curve]"}
{"smiles": "Cc1ccc(S(=O)(=O)N(C)C)cc1NC(=O)c1cccnc1Oc1ccccc1", "Potency": "inconclusive: 16.4 µM [inhibitor, partial curve, poor fit]"}
{"smiles": "O=[N+]([O-])c1cccc2c(N3CCCC3)ccnc12", "Potency": "inconclusive: 14.6 µM [inhibitor, partial curve]"}
{"smiles": "CN1CCN(c2ccc(-c3cccc(NC(=O)COc4ccccc4)c3)nn2)CC1", "Potency": "inconclusive: 4.61 µM [activator, partial curve]"}
{"smiles": "Cc1ccc(S(=O)(=O)N2CCN(C(=O)CCn3nc(C)c(C)c3C)CC2)cc1C", "activity change, negative = inhibition": "inactive: 1.04%"}
{"smiles": "Cc1ccc(NC(=O)Nc2ccc3c(c2)N(C)C(=O)CS3)cc1C", "Potency": "inconclusive: 16.4 µM [inhibitor, partial curve]"}
{"smiles": "Cc1ccc(N(Cc2ccccc2)C(=O)c2cccc(S(=O)(=O)N3CC(C)OC(C)C3)c2)cc1", "note": "(configuration not stated)", "activity change, negative = inhibition": "inactive: -10.7%"}
{"smiles": "Cc1ccc2c(c1)CCCN2C(=O)c1cccs1", "activity change, negative = inhibition": "inactive: 2.14%"}
{"smiles": "C1CCN=C(Nc2nc3c(s2)CCCC3)CC1", "Potency": "inconclusive: 9.2 µM [activator, partial curve, poor fit]"}
{"smiles": "CCCCn1c(=O)[nH]c(=O)c2c1nc(-c1cccc(OC)c1)n2C", "Potency": "inconclusive: 29.1 µM [inhibitor, single point]"}
{"smiles": "CC(C)CCn1nnnc1C(c1ccc(N(C)C)cc1)N1CCN(C(=O)c2ccco2)CC1", "note": "(configuration not stated)", "activity change, negative = inhibition": "inactive: 2.17%"}
{"smiles": "O=C(Nc1ccc(N2CCOCC2)c2nonc12)C1CCCC1", "Potency": "inconclusive: 20.6 µM [activator, partial curve]"}
{"smiles": "Cc1nn(C)c(C)c1N1C(=O)c2cccc3c(Br)ccc(c23)C1=O", "Potency": "inconclusive: 29.1 µM [activator, single point]"}
{"smiles": "COc1ccccc1-c1nc(-c2ccccn2)no1", "Potency": "inconclusive: 0.366 µM [activator, full curve]"}
{"smiles": "Cc1ccc(NC(=O)c2sc(C)nc2C)c(C)c1", "Potency": "inconclusive: 14.6 µM [activator, single point]"}
{"smiles": "CN(C(=O)c1ccc(NC(=O)Cc2cccc([N+](=O)[O-])c2)cc1)C1CCCC1", "activity change, negative = inhibition": "inactive: -16.7%"}
{"smiles": "O=C(NCCC1=CCCCC1)c1ccc(Cl)cc1", "Potency": "inconclusive: 2.91 µM [activator, partial curve]"}
{"smiles": "O=S(=O)(NCc1cn2ccccc2n1)c1cccs1", "Potency": "inconclusive: 14.6 µM [activator, partial curve]"}
{"smiles": "CC(=O)C1=C(C)NC2=C(C(=O)CC(C)(C)C2)C1C", "note": "(configuration not stated)", "Potency": "inconclusive: 20.6 µM [inhibitor, single point]"}
{"smiles": "CCc1ccccc1N(CC(=O)NC1CCCCC1)C(=O)CNC(=O)c1ccco1", "activity change, negative = inhibition": "inactive: 1%"}
{"smiles": "O=[N+]([O-])c1ccc2ncnc(Nc3ccc4c(c3)OCCO4)c2c1", "Potency": "inconclusive: 4.61 µM [inhibitor, partial curve]"}
{"smiles": "CCOC(=O)c1cc(-c2ccc(C)c([N+](=O)[O-])c2)nc2c1c(=O)n(C)c(=O)n2C", "Potency": "inconclusive: 5.17 µM [inhibitor, single point]"}
{"smiles": "COc1ccc2c(c1)C(=O)CCC2c1ccccc1", "note": "(configuration not stated)", "activity change, negative = inhibition": "inactive: -6.92%"}
{"smiles": "CCN1C(=O)C(CC(=O)Nc2ccc(OC)cc2)N(CCc2ccccc2F)C1=S", "note": "(configuration not stated)", "Potency": "active: 16.4 µM"}
{"smiles": "COc1cccc(-c2nn(C)c3sc(C(=O)NCc4ccco4)cc23)c1", "Potency": "inconclusive: 6.51 µM [inhibitor, single point]"}
{"smiles": "COc1ccc([N+](=O)[O-])cc1NC(=O)C(C)Sc1ccc(C)cc1", "note": "(configuration not stated)", "Potency": "inconclusive: 32.6 µM [inhibitor, partial curve, poor fit]"}
{"smiles": "Cc1cccc2cc(COC(=O)C3CCCO3)c(=O)[nH]c12", "note": "(configuration not stated)", "Potency": "inconclusive: 7.31 µM [activator, partial curve, poor fit]"}
{"smiles": "Cc1cc(C)c2cc3c(N)c(C(=O)N4CCc5ccccc5C4)sc3nc2c1", "activity change, negative = inhibition": "inactive: -3.95%"}
{"smiles": "Cc1cc2c(N=NC(=O)C3CC3c3ccccc3)c(O)[nH]c2cc1Br", "note": "(configuration not stated)", "Potency": "inconclusive: 29.1 µM [inhibitor, single point]"}
{"smiles": "C/C(Cc1ccccc1)=N\\NC(=O)CNC(=O)c1ccccc1O", "Potency": "inconclusive: 3.66 µM [inhibitor, partial curve, poor fit]"}
{"smiles": "S=C(NCc1cccnc1)Nc1ccc(Oc2ccc(Cl)cc2)cc1", "Potency": "active: 10.3 µM"}
{"smiles": "Cc1ccccc1CN1CCC(n2nccc2NC(=O)CCCc2ccccc2)CC1", "Potency": "inconclusive: 8.2 µM [inhibitor, partial curve]"}
{"smiles": "COc1cc(Cl)c(CN2CCCC(CO)(Cc3cccc(Cl)c3)C2)cc1OC", "note": "(configuration not stated)", "activity change, negative = inhibition": "inactive: -25.8%"}
{"smiles": "Cc1nc(N)sc1C(=O)Nc1ccccc1", "Potency": "inconclusive: 3.66 µM [activator, partial curve, poor fit]"}
{"smiles": "CC1CCCCN1C(=O)c1cc2c(=O)n3ccccc3nc2s1", "note": "(configuration not stated)", "Potency": "inconclusive: 20.6 µM [activator, partial curve]"}
{"smiles": "O=C1N=C(N2CCN(c3ccccc3)CC2)S/C1=C/c1cccs1", "Potency": "inconclusive: 16.4 µM [inhibitor, single point]"}
{"smiles": "COc1ccc(C(NC(=O)c2ccc(-c3ccccc3)cc2)c2ccccc2)cc1", "note": "(configuration not stated)", "activity change, negative = inhibition": "inactive: -0.222%"}
{"smiles": "Cc1sc2nc(SCC(=O)c3cccs3)n(Cc3ccco3)c(=O)c2c1C", "activity change, negative = inhibition": "inactive: -6.9%"}
{"smiles": "CCCN(CCC)C(=O)CSc1nc2n[nH]c(C)c2c(=N)n1-c1ccc(OC)cc1", "Potency": "inconclusive: 20.6 µM [inhibitor, single point]"}
{"smiles": "COc1cc(OC)cc(-c2cc3cc(F)ccc3cn2)c1", "Potency": "inconclusive: 2.91 µM [activator, full curve]"}
{"smiles": "Cc1ccc(S(=O)(=O)NCc2ccc(C(=O)NCCN(Cc3ccccc3)C(C)C)cc2)cc1", "Potency": "inconclusive: 29.1 µM [inhibitor, single point]"}
{"smiles": "COc1ccc(NC(=O)Cn2ncc(Cl)c(Cl)c2=O)cc1S(=O)(=O)N1CCOCC1", "Potency": "inconclusive: 29.1 µM [inhibitor, single point]"}
{"smiles": "Nc1c(C(=O)Nc2ccc(S(=O)(=O)N3CCCC3)cc2)sc2nc3cc4c(cc3cc12)CCC4", "activity change, negative = inhibition": "inactive: 22.6%"}
{"smiles": "Cc1ccc(C(=O)Nc2cc3c(oc2=O)CCCC3=O)cc1", "Potency": "inconclusive: 10.3 µM [activator, partial curve]"}
{"smiles": "CCCC(=O)NCc1cc(-c2nn(C)c(=O)c3ccccc23)ccc1C", "Potency": "inconclusive: 20.6 µM [inhibitor, single point]"}
{"smiles": "COc1ccc(CC(=O)Nc2ccc(S(=O)(=O)NCC3CCCO3)cc2)cc1", "note": "(configuration not stated)", "Potency": "inconclusive: 8.2 µM [inhibitor, partial curve, poor fit]"}
{"smiles": "CS(=O)(=O)n1nc(-c2ccc(Cl)cc2)nc1SCc1ccccc1", "Potency": "inconclusive: 20.6 µM [activator, partial curve]"}
{"smiles": "COc1ccc(CNC(=O)c2cccnc2Sc2ccc(C)c(C)c2)cc1", "Potency": "inconclusive: 13 µM [inhibitor, partial curve]"}
{"smiles": "CCN(C(=O)COC(=O)c1cc(OC)ccc1Br)C1CCS(=O)(=O)C1", "note": "(configuration not stated)", "activity change, negative = inhibition": "inactive: 2.73%"}
{"smiles": "CN(Cc1c(C(=O)N(C)Cc2ccccc2)nc2ccccn12)CC1Cc2ccccc2O1", "note": "(configuration not stated)", "Potency": "inconclusive: 23.1 µM [inhibitor, single point]"}
{"smiles": "CSCc1ccc(C(=O)Nc2cc(C)cc(C)c2)cc1", "Potency": "inconclusive: 11.6 µM [activator, partial curve]"}
{"smiles": "Cc1cc(C(=O)Nc2ccccc2N2CCOCC2)c(C)o1", "Potency": "inconclusive: 6.51 µM [inhibitor, single point]"}
{"smiles": "COc1ccc(NC(=O)c2n[nH]c(=O)c3ccccc23)cc1S(=O)(=O)N1CCCCC1", "Potency": "active: 23.1 µM"}
{"smiles": "COc1ccc([N+](=O)[O-])cc1NC(=O)CC1SC(=Nc2cccc(C)c2C)N(/N=C/c2cccc(OC)c2OC)C1=O", "note": "(configuration not stated)", "activity change, negative = inhibition": "inactive: -15.4%"}
{"smiles": "O=C(Nc1ccc(NC(=O)C2CC2)nc1)c1cccc(F)c1", "Potency": "inconclusive: 16.4 µM [activator, partial curve]"}
{"smiles": "CCOC(=O)/C(C)=N/Nc1nc(-c2ccc(NC(C)=O)cc2)cs1", "Potency": "inconclusive: 18.3 µM [inhibitor, partial curve]"}
{"smiles": "COc1ccc(C(=O)N2CCC(n3c(C)nc4cc(F)ccc43)CC2)cc1", "Potency": "inconclusive: 16.4 µM [inhibitor, single point]"}
{"smiles": "COc1ccccc1/C=C1\\SC(=O)N(CCC(=O)N(C)C2CCS(=O)(=O)C2)C1=O", "note": "(configuration not stated)", "activity change, negative = inhibition": "inactive: -1.47%"}
